Source: US20240067728A1
These are yes or no findings as the source states them, for the method shown. Some entries that bind do so weakly or less than the wild type.

Amino acid sequences for entries named in this document (tags omitted). Residues count along the entry.
UniProt Q08722, residues 19-323: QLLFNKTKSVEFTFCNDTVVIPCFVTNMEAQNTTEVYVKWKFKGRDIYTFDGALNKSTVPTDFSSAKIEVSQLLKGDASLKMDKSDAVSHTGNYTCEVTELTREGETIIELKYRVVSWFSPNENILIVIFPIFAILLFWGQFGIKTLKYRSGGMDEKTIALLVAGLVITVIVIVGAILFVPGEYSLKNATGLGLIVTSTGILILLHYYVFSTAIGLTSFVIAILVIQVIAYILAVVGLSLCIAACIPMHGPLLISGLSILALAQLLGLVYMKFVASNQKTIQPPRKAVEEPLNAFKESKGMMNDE

Key:
[1] = target: CD47 on human T lymphocyte leukemia Jurkat cells (human) (UniProt Q08722); test: FACS on Jurkat cells, PE-labeled anti-human Fc secondary antibody; MFI(Mean) against Con(nM)
[2] = target: CD47 on human red blood cells (human) (UniProt Q08722); test: FACS on human red blood cells, PE-labeled anti-human Fc secondary antibody; MFI(Mean) against Con(nM)
[3] = target: CD47 on human T lymphocyte leukemia Jurkat cells (human) (UniProt Q08722); test: flow cytometry (FACS) on Jurkat cells, PE anti-human Fc
[4] = target: CD47 on human red blood cells (human) (UniProt Q08722); test: flow cytometry (FACS) on human red blood cells, PE anti-human Fc

Measured: binding

B1: 47-R2-4 (antibody, human IgG1, kappa, V domains shown)
VH: QVQLQESGPGLVKPSETLSLTCTVSGGSLDNYYWSWIRQPPGKGLEWIGYIYYSGNTNYNPSLKSRVTISVDTSKNQFSLKLSSVTAADTAVYYCARGGRFLERYWGQGTLVTVSS
VL: EIVLTQSPSSLSASVGDRVTITCLASQTIGTWLAWYQQKPGKSPQLLIYAASTLQSGVPSRFSGSGSGTDFTLTISSLQPEDVATYYCQQYYSTPRTFGQGTKVEIKR
binds: [1] | [2] | [3] | [4]
